Results are given in words; binding and its absence hold for the method and conditions named. Some binding calls cover weakened binding; strength is not graded here.
Molecular target: sCD4-HRP (Research Diagnostics Inc.) (UniProt P01730)
Assay: microtiter assay, plate-bound peptide, sCD4-HRP

B1: P11, C-terminal peptide of Salp15 (amino acids 95-114) (peptide)
peptide: GPNGQTCAEKNKCVGHIPGC
binding: binds

— patent publication US20080305997A1
